These results are taken from patent US20230192860A1.

These are yes or no findings as the source states them, for the method shown. Some binding calls cover weakened binding; strength is not graded here.

The target of test [1] is T1, hVISTA IgV domain (co-crystallised) (human) (UniProt Q9H7M9).
T1 sequence: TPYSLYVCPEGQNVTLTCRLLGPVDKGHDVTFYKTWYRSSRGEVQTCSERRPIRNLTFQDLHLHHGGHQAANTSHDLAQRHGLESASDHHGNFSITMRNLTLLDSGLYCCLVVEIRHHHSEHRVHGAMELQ
The experiment in a line: structure (FIG. 18E).

The target of test [2] is monovalent hVISTA-ECD (amino acids 32-193 of SEQ ID NO: 1 with a 7xHis tail) (human) (UniProt Q9H7M9). The experiment in a line: SPR 37C, Ab on Protein A, 100 nM hVISTA-ECD, pH 7.4, 6.7 and 6.0.

B1: VISTA.5 (mAb1) (antibody, V domains shown)
VH: AVQLQESGPGLVRPSQSLSLTCTVTDYSITSDYAWNWIRQFPGSKLEWLGFIGYSGNTNYNPSLESRISITRHTSKNQFFLHLNSMTTEDTATYYCARSLYGGSHWYFDVWGAGTTVTVSS
VL: DIVLTQSPASLAVSLGQRATISCRGSESVEYYGTILMQWYQQKPGQPPKLLIYGASNVESGVPARFSGSGSGTDFSLNIHPVEEDDIAMYFCQQSRKVPWTFGGGTKLEIK
Consider B1, for which the binding entry in test [1] and in test [2] was “binds” throughout.
